Some entries share one result that the patent states for a list of compounds.
Assays:
[1] = tested on: FVB/n mice; experiment: Immunogenicity in FVB/n mice, antibody titers by direct ELISA; format: in vivo, mouse; details: for titer: only one mouse of the group
Experimental: Groups of four to ten FVB/n mice were immunized with linear (NC) or disulfide-bonded (SS) peptide constructs (A) MVF563-598, (B) MVF585-598, (C) MVF597-626, or the linear peptide (D) MVF613-626. Each mouse is represented as an individual bar. Note that the scale in A is different then B-D;
Direct ELISAs were performed on sera from mice immunized with the cyclized (CYC) and linear (NC) constructs to determine differences in immunogenicity. Antibody titers against the corresponding immunogen were defined as the reciprocal of the highest dilution with absorbance ≧0.2. Each bar represents an individual mouse. Designation on the x-axis represents time at which sera was sampled, e.g. 1y+3 corresponds to serum collected three weeks after the first immunization. Neu-N mice have an FVB/n background and express normal rat neu proto-oncogene under control of a mammary-specific promoter. These mice show tolerance to neu relative to non-transgenic mice (Cancer Research 60, 3569).
Direct ELISA. U-bottom polyvinyl chloride plastic assay plates were coated with 100 μl of antigen at 2 μg/ml in PBS overnight at 4° C. Nonspecific binding sites were blocked for 1 hour with 200 μl PBS-1% BSA and plates were washed with PBT (phosphate-buffered saline containing 0.05% Tween 20 and 1% horse serum). Rabbit antiserum 1/500 or mouse antiserum 1/50 in PBT was added to antigen coated plates, serially diluted 1:2 in PBT, and incubated 2 hr at room temperature. After washing the plates, 50 μl of 1/500 goat anti-rabbit or goat anti-mouse IgG conjugated to horseradish peroxidase (Pierce Chemical Co.) was added to each well. Excess antibody conjugate was removed, and bound antibody was detected using 50 μl of 0.15% H2O2 in 24 mM citric acid, 5 mM sodium phosphate buffer, pH 5.2, with 0.5 mg/ml […] as the chromophore. Color development was allowed to proceed for 10 min and the reaction was stopped with 25 μl of 1% sodium dodecylsulfate. Absorbance was determined at 410 nm using a Dynatech MR700ELISA reader. Results are expressed as the mean absorbance of duplicate wells after subtraction of background.
The immunogenicity of the 4 constructs listed in Table 1 was determined using both the disulfide-bonded and linear constructs by immunizing groups of FVB/n mice (n=4-9) 6-8 weeks old. […] Three mice that received the cyclized form of 597-626 had titers above 120,000, while no mouse that received the linear form had titers above 120,000.

[2] = tested on: outbred mice; experiment: Immunogenicity (antibody titers) in outbred mice; format: in vivo, mouse
[3] = three weeks after the third immunization

Row | Substance | titers [2] | titer [1, 3] | other results
1 | KLLSLIKGVIVHRLEGVE-GPSL-CHPECQPQNGSVTCFGPEADQCVACAHYKDPPFCVA (KLLSLIKGVIVHRLEGVEGPSLCHPECQPQNGSVTCFGPEADQCVACAHYKDPPFCVA; three disulfide bonds) [MVF 563 SS] | – | – | titers ([1]; all mice, three weeks after the third immunization): above 120,000
2 | KLLSLIKGVIVHRLEGVE-GPSL-CPINCTHSCVDLDDKGCPAEQRAS [626-649 cyclized] | > 200,000 | – | –
3 | KLLSLIKGVIVHRLEGVE-GPSL-CPINCTHSCVDLDDKGCPAEQRAS [626-649 linear] | > 200,000 | – | –
4 | KLLSLIKGVIVHRLEGVE-GPSL-VACAHYKDPPFCVA (KLLSLIKGVIVHRLEGVEGPSLVACAHYKDPPFCVA; one disulfide bond) [MVF 585 SS] | – | above 120,000 | –
5 | KLLSLIKGVIVHRLEGVE-GPSL-VACAHYKDPPFCVA [585-598 NC] | – | above 120,000 | –
6 | KLLSLIKGVIVHRLEGVE-GPSL-VARCPSGVKPDLSYMPIWKFPDEEGACQPL (KLLSLIKGVIVHRLEGVEGPSLVARCPSGVKPDLSYMPIWKFPDEEGACQPL; one disulfide bond) [MVF 597 SS] | – | – | titers ([1]; three mice of the group): above 120,000

From US8470333B2, “Chimeric peptides comprising HER-2 B-cell epitopes and T-helper epitopes” (The Ohio State University Research Foundation, priority 2005, dated 2013)
